Test results as given in US8748566B2, “Pharmacologically active antiviral peptides and methods of use” (priority 2000, dated 2014).
Not every detail of the peptide structures is certain; ends, links or a residue may be inferred. Ends that are not written are not given here.

What was measured:
hrR3 [1] = assay: LacZ+ virus (hrR3) entry assay; format: cell-based
Description: Confluent Vero cell cultures in 96-well microtiter plates were switched to Hepes-buffered serum-free DMEM, cooled on ice to 4° C. for 30 min, and infected with hrR3 for 1 hour at 4° C. in 40 μl of medium. Unattached virus was removed by rinsing with ice-cold medium. Treatments with antiviral peptide SEQ ID NO:1, referred to as EB, or a control peptide which comprised the RRKK tetra-peptide (SEQ ID NO:16) attached to a scrambled version of the membrane transiting peptide RRKKLAALPLVLAAPLAVLA (SEQ ID NO:17) (referred to as EBX), or mock-treatments with peptide-free medium were carried out in serum-free DMEM as indicated. Virus entry was initiated by transferring cultures to 37° C. To inactivate any remaining extracellular virus, cultures were rinsed with PBS and exposed to low pH citrate buffer (40 mM citric acid, 10 mM KCl, 135 mM NaCl, pH 3.0, according to Highlander et al., J. Virol. 61:3356 (1987), for 1 min at 23° C. The citrate was rinsed off with PBS and cultures were maintained in serum-supplemented DMEM until they were fixed with 0.5% gluteraldehyde in 5×PBS for 30 min at 23° C., stained for β-galactosidase activity for 1 hour or overnight at 23° C. with X-gal (Fisher Biotech; BP 1615-1) in 1×PBS containing […], 1.3 mM K4Fe(CN)6, and 1.3 mM K3Fe(CN)6, and scored for the presence of blue lacZ^+ cells.
In these studies, the hrR3 virus was pre-adsorbed to cells for 1 hour at 4° C. before ice cold 25 μM EB or EBX were added in serum-free DMEM. After an additional 1 hour at 4° C., cultures were shifted to 37° C. to initiate virus entry. At 15 min intervals following the temperature shift, any virus remaining outside the cells was inactivated by washing the cultures with low pH citrate buffer. Cultures were then rinsed and returned to peptide-free serum-supplemented DMEM until they were fixed and stained for f-galactosidase 8 hours after the temperature shift.
This conclusion is strengthened by the finding that the EB-sensitive phase of infection with pre-adsorbed virus clearly precedes expression of lacZ genes in hrR3 infected cells (FIG. 7A). […]

hrR3 [2] = assay: Virucidal assay; format: cell-based
Description: […] The treated virus was diluted 200-fold with serum-supplemented DMEM and assayed for infectivity approximately 1 hour later in microtiter wells seeded with Vero cells (3.5×10^4 cells/well) 1 d earlier. Forty or 100 microliter volumes of diluted virus were adsorbed for 1 or 2 h at 37° C. and lacZ^+ cells were scored 8 hours later. In some experiments, aliquots of diluted virus were first dialyzed (Spectra/Por; MWCO 12-14,000) overnight at 4° C. against a 60-fold excess volume of Hepes-buffered serum-supplemented DMEM or forced by syringe through 0.22 μm membranes (Millex-GV; Millipore) before the remaining infectious virus was assayed.

RRKKLAALPLVLAAPLAVLA [EBX, RRKKLAALPLVLAAPLAVLA, reference compound]
effect on the number of lacZ+ cells (hrR3 [1]; 25 μM peptide added to pre-adsorbed virus at 4° C., serum-free (FIG. 6A)): did not significantly reduce the number of lacZ^+ cells
Entry Blocking Activity (IC50) (hrR3 [1]; Table 3): None
effect on development of lacZ+ cells (hrR3 [1]; peptide added immediately after each citrate treatment (FIG. 6B)): did not significantly inhibit
Virucidal Activity 4° C. (IC50) (hrR3 [2]; 4° C.): None
Virucidal Activity 37° C. (IC50) (hrR3 [2]; 37° C.): None
IC50 infectivity of virions (hrR3 [2]; first experiment (FIG. 8A)): no inhibitory effect
